{"sequences": {"note": "Chains of the proteins cited; added tags and fusions are not shown.", "UniProt P63279, whole entry": "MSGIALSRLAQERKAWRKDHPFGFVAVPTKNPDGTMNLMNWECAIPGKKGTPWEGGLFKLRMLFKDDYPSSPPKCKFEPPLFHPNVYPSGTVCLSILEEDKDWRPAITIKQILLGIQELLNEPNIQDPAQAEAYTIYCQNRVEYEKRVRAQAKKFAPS"}, "source": "PubChem BioAssay AID2006", "about": "(Sanford-Burnham Center for Chemical Genomics, 2009)", "note": "Some of the results follow."}
{"target": "SUMO-conjugating enzyme UBC9 (Homo sapiens) (UniProt P63279)", "assay": "blockers of SAE1/SAE2–UBC9 SUMO transfer – biochemical, HTRF, uHTS, primary screen (AID 2006)", "conditions": "HTRF SUMOylation assay, SAE1/SAE2 + UBC9, in vitro; average of repeat tests; at 35 µM; stronger effect = higher value", "units": {"inhibition": "%"}}
{"smiles": "Nc1cccc2ccc([As](=O)(O)O)cc12", "inhibition": 53.8}
{"smiles": "Nc1cccc2c([As](=O)(O)O)cccc12", "inhibition": 39.9}
